Measurements reported in PubChem BioAssay AID1259254 (NCATS, 2017).
In all, the deposit lists about 59,000 reagents; below is an unselected part. Over the whole deposit, about 1,550 (2.6%) are marked active. 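G2 share is only a proxy for re-replication; each gene was hit by three separate siRNAs, and active genes were retested.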 The numbers tell different reagents against one gene apart. Not all columns of the deposit are shown. The record does not give: the amount of reagent.

Aim: 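Finding genes that stop cells copying their DNA twice in one cycle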 (primary screen)
System: human HCT116 colorectal cancer cells
Knock-down reagent: single siRNA against human genes
Timing: 3 days
Read-out: 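Nuclei stained with Hoechst and imaged; cell-cycle phase assigned by DNA content; G2 share scaled per plate, non-targeting siRNA 0%, GMNN siRNA 100%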
Scale: G2 robust z-score: higher = more G2 cells, more excess DNA replication
Rule for the call: 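An siRNA counts as active if its G2 robust z-score lies at least 5 MADs above the screen median; here such calls match roughly 38% of GMNN control or more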

With knock-down of HACL1 (GeneID 26061) #1, the screen gave G2 robust z-score 1.81; inactive.
With knock-down of HACL1 (GeneID 26061) #2, the screen gave G2 robust z-score 0.821; inactive.
Silencing of HACL1 (GeneID 26061) #3 came out at: G2 robust z-score 1.01; inactive.
After knock-down of BYSL (GeneID 705) #1, the record shows G2 robust z-score 2.05; inactive.
With knock-down of BYSL (GeneID 705) #2, the record shows G2 robust z-score 0.119; inactive.
Against BYSL (GeneID 705) #3, the entry reads G2 robust z-score 0.467; inactive.
KLHL35 (GeneID 283212) #1 gave G2 robust z-score 4.49; inactive.
Against KLHL35 (GeneID 283212) #2, the values are G2 robust z-score -0.0339; inactive.
For KLHL35 (GeneID 283212) #3 the deposit lists G2 robust z-score -0.402; inactive.
Against PMM2 (GeneID 5373) #1, the entry reads G2 robust z-score -0.61; inactive.
Against PMM2 (GeneID 5373) #2, the values are G2 robust z-score -0.211; inactive.
PMM2 (GeneID 5373) #3 scored G2 robust z-score -0.931; inactive.
Against CIC (GeneID 23152) #1, the values are G2 robust z-score -0.316; inactive.
Depletion of CIC (GeneID 23152) #2 resulted in: G2 robust z-score 0.71; inactive.
For CIC (GeneID 23152) #3, the values are G2 robust z-score -0.593; inactive.
With knock-down of TTLL13 (GeneID 440307) #1, the screen gave G2 robust z-score -0.495; inactive.
Against TTLL13 (GeneID 440307) #2, the values are G2 robust z-score 1.83; inactive.
With knock-down of TTLL13 (GeneID 440307) #3, the record shows G2 robust z-score 1.53; inactive.
For PRMT5 (GeneID 10419) #1, the values are G2 robust z-score 1.18; inactive.
After knock-down of PRMT5 (GeneID 10419) #2, the record shows G2 robust z-score -1.27; inactive.
Silencing of PRMT5 (GeneID 10419) #3 resulted in: G2 robust z-score -0.606; inactive.
With knock-down of SMIM5 (GeneID 643008) #1, the screen gave G2 robust z-score -0.356; inactive.
Against SMIM5 (GeneID 643008) #2 the deposit lists G2 robust z-score -0.364; inactive.
SMIM5 (GeneID 643008) #3 showed G2 robust z-score 1.73; inactive.
